The series is described as follows: acute toxicity. As to conditions: mouse, in vivo; oral; DS infant male mice, 20 to 23 g; observed 72 hours; Bliss method. As to the method:
Test compounds were orally administered to DS infant male mice with four toxic doses. For each dose 10 mice were used, their body weights ranging from 20 to 23 grams. […] Mortality was calculated by the Bliss method [Bliss: Ann. Appln. Biol., 23, 134-307 (1935); Quant. J. Pharmacol., 11, 192 (1938)].

Each structure is given as a SMILES string.

A word on the LD50: it is the dose at which mortality reaches 50%. Lower therefore signals greater toxicity.

For `CN1C(=O)CN=C(c2ccccc2)c2cc(Cl)ccc21` [Diazepam, reference compound], the LD50 at 72 h is > 1000 mg/kg.

Source of the values: patent US4476133A, “Triazolo-4,1-benzoxazepines having CNS activity” (Shionogi & Co., Ltd., priority 1980, dated 1984).
